We go through 1 substance from PMC2712095.

Amino acid sequences for entries named in this document (tags omitted). Residues count along the entry.
UniProt Q08722, residues 19-323: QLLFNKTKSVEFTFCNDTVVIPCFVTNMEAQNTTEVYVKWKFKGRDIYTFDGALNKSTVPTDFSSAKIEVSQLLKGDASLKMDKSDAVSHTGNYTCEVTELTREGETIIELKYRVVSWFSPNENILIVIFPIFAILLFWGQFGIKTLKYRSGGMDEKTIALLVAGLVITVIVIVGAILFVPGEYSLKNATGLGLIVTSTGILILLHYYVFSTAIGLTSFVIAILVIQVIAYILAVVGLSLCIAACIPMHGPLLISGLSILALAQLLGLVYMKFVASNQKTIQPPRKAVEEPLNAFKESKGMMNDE
UniProt P17301, residues 30-1181: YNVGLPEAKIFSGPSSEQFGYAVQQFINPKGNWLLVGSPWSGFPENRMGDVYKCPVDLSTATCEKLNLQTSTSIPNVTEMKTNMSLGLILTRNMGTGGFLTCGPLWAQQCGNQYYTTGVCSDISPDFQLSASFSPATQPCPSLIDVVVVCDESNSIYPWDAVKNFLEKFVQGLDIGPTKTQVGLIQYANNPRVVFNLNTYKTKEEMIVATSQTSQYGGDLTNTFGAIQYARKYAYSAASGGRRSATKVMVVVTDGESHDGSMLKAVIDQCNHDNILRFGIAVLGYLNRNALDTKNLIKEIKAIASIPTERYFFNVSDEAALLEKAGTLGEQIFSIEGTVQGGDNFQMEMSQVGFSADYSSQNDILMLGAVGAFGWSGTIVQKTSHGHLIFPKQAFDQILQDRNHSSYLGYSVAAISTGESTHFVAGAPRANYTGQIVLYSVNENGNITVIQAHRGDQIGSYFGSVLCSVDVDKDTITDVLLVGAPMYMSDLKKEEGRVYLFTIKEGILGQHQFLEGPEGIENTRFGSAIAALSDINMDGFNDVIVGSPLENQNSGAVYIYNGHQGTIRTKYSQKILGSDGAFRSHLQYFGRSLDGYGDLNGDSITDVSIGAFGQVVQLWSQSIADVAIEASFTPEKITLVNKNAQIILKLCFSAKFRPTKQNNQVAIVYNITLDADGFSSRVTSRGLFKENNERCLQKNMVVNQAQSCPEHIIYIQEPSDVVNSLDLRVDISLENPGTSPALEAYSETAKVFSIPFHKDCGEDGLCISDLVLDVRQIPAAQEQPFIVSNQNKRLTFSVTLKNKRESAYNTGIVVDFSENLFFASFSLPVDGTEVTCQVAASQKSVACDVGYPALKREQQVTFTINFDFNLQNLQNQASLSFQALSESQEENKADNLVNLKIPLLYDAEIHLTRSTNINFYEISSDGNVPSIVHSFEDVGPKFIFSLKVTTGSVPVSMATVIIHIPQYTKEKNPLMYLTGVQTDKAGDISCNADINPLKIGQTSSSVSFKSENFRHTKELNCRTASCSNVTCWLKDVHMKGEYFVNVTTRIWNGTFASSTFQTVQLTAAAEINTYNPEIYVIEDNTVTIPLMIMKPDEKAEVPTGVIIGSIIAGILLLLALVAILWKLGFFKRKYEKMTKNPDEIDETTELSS

Results are given in words; binding and its absence hold for the method and conditions named. Binding seen in cells or lysates may run through a third protein. Some results given as binding are weak or reduced against the parent protein; the word gives no strength.

This test addresses CD47 (Integrin Associated Protein) (human (endogenous in Int 407)) (UniProt Q08722). Briefly: co-IP; anti-CD47 (MEM122) immunoprecipitation from lysates (1% octyl-β-D-1-thioglucopyranoside) of Int 407 cells adhered for 1 h to collagen I or BSA coated dishes, overnight at 4°C, protein G; Western blot for α2 integrin and CD47; cells pre-treated or not with PTX, anti-CD47 B6H12, anti-β2 integrin antibody or control IgG.

Take “α2 integrin (from UniProt P17301 30-1181)”: the binding entry is on record as “binds”.
